Data taken from PubChem BioAssay AID1508623, deposited by NCATS (2021).

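Change in HTT-promoter-driven luminescence in engineered HEK293 reporter cells after a 24 h treatment, measured at one concentration. Percent change in reporter signal versus vehicle (0%) down to no light (-100%); more negative values mean stronger inhibition of promoter activity.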

Values are in %. Common to all entries: at 57.5 µM (top of the series). Only part of the assay is listed here, not a random draw.

structure | activity change (%)
CC(=O)Nc1ccc(S(=O)(=O)Nc2cccc(-c3ccc(N4CCC(C)CC4)nn3)c2)cc1 | 21.16
COC(=O)c1ccc(NC(=O)CC2C(=O)N(c3cccc(OC)c3)C(=O)N2C(C)C)cc1 (stereo not given) | -12.39
CCOc1ccc(S(=O)(=O)Nc2cccc(-c3ccc(N4CCC(C)CC4)nn3)c2)cc1 | 16.93
O=C(Nc1cc(Cl)ccc1O)c1cc(-c2ccc3c(c2)OCO3)on1 | 55.51
CCc1ccc(NC(=O)CC2C(=O)N(c3cccc(C)c3)C(=O)N2Cc2ccco2)cc1 (stereo not given) | -21.99
CCCc1cc(=O)n2c(C(=O)Nc3ccc(OCC)cc3)c(C(=O)Nc3ccc(C)cc3)sc2n1 | -18.75
CCCCN(CCCC)S(=O)(=O)c1ccc(NC(=O)c2c(-c3ccccc3)noc2C)cc1 | -39.01
COc1ccc2c(C)c(CC(=O)NCc3ccc(C)cc3)c(=O)oc2c1OC | -12.84
COc1ccc(-c2cc(C(=O)Nc3c(C)n(C)n(-c4ccccc4)c3=O)no2)cc1OC | -6.495
O=S(=O)(Nc1ccc(-c2ccc(N3CCCCC3)nn2)cc1)c1ccc(OC(F)(F)F)cc1 | -12.99
O=C(NCCCc1nc2ccccc2n1Cc1ccccc1Cl)c1ccco1 | -43.98
CCCCC(=O)Nc1cccc(-c2nc3ncccc3o2)c1C | 13.15
COC(=O)c1ccc(NC(=O)CCc2c(C)nn(-c3ccc(N4CCCC4)nn3)c2C)cc1 | -28.7
COc1ccc(OC)c(S(=O)(=O)Nc2cccc(-c3ccc(N4CCCCCC4)nn3)c2)c1 | -10.19
Cc1ccccc1NC(=O)CSc1nnc(COc2ccc(Cl)cc2)o1 | -14.35
Cc1ccc2nc(N3CCN(c4ccccc4)CC3)c3nnnn3c2c1 | -1.968
COc1ccc(NC(=O)CC2C(=O)N(c3ccc(C)cc3)C(=O)N2Cc2cccnc2)cc1 (stereo not given) | -6.021
COc1ccccc1CNC(=O)CCS(=O)(=O)c1ccc2c(c1)CC(C)N2C(=O)C1CC1 (stereo not given) | -31.26
CC(=O)c1cccc(NC(=O)Cn2c(-c3cncs3)nc3ccccc32)c1 | -21.43
CCc1ccc(S(=O)(=O)Nc2ccc(-c3ccc(N4CCCC4)nn3)cc2)cc1 | -3.078
CC(C)Oc1ccc(CNC(=O)C2CCCCN2S(=O)(=O)c2ccc(F)cc2)cc1 (stereo not given) | -41.1
Cc1oc2c(cc(NS(=O)(=O)c3ccc(F)cc3)c3ccccc32)c1C(=O)OCc1ccccc1 | -6.059
O=S(=O)(c1ccc(F)cc1)N1CCC(n2c(C(F)(F)F)nc3cccnc32)CC1 | -32.66
Cc1ccc(Nc2nc3ccccc3c3nncn23)cc1C | -20.02
CC(=O)c1cccc(NC(=O)c2noc3c2CCCC3)c1 | 46.01
Cc1ccccc1NC(=O)CCn1nc(-c2ccc(Cl)cc2)c2ccccc2c1=O | -23.28
CN(Cc1ccccc1)C(=O)C1CCN(S(=O)(=O)Cc2ccccc2)CC1 | -15.06
O=C1C(c2ccc(F)cc2)N(CCc2ccc(Cl)cc2)C(=O)CN1C1CCCCCC1 (stereo not given) | -72.96
CCc1c(C)c2ccc(O)c(CN3CCN(c4ccc(F)cc4)CC3)c2oc1=O | -31.45
O=C(Nc1cccc(Br)c1)N1CCN2CCCCC2C1 (stereo not given) | -2.021
O=C(CCN1CCN(CCO)CC1)Nc1ccc(Br)cc1 | -19.72
O=C(NCCc1ccc(Cl)cc1)c1cnc2sc(N3CCOCC3)nn2c1=O | 0.9402
CCCc1cc(=O)[nH]c(Nc2cccc(Cl)c2Cl)n1 | -30.11
CC(=O)Nc1ccc(S(=O)(=O)Nc2cccc(-c3ccc(N4CCCCCC4)nn3)c2)cc1 | 21.8
CC(C)(C)C1CCc2onc(C(=O)Nc3sc4c(c3C#N)CCCC4)c2C1 (stereo not given) | -6.386
COc1ccc(CCNC(c2ccc(F)cc2)c2nnc(-c3ccccc3Cl)o2)cc1OC (stereo not given) | -47.63
O=C(CSc1nc(-c2ccco2)nc2cc(=O)[nH]n12)Nc1ccc(F)cc1 | -13.92
CCOc1ccc(C2C(=O)N(C3CCCCCC3)CC(=O)N2Cc2ccc(C)cc2)cc1OC (stereo not given) | -35.23
COc1ccc(NC(=O)c2c(C)oc3ccc(O)c(CN4CCOCC4)c23)cc1 | -3.207
CCCc1cc(=O)[nH]c(Nc2ccc(C)c(O)c2)n1 | -20.66
CCc1nn(CC(=O)NCc2ccc(OC)cc2OC)c(=O)c2cc3c(OC)cccc3n12 | -19.28
CC1Cc2cc(S(=O)(=O)CCC(=O)NCc3ccc(Cl)cc3)ccc2N1C(=O)C1CC1 (stereo not given) | -24.77
CCOc1ccc(C(=O)Nc2ccc(Cl)c(-c3nc4cc(C)cc(C)c4o3)c2)cc1 | -13.99
COc1ccc(NC(=O)CSc2nc(-c3ccco3)nc3cc(=O)[nH]n23)cc1 | -8.541
Cc1ccc(-c2ccc(CCC(=O)O)n2-c2cccc(C)c2C)cc1 | -18.59
O=C1C(=O)N(C2CCN(C(=O)c3cccc(Cl)c3)CC2)CCN1Cc1ccc(F)cc1 | -15.34
COc1cc(NC(=O)c2cc(-c3ccc(Cl)c(Cl)c3)on2)cc(OC)c1OC | -7.194
Cc1nn(Cc2ccc(Cl)c(Cl)c2)c(C)c1NC(=O)c1noc2c1CCc1ccccc1-2 | -73.93
Cc1c(CCC(=O)NCCc2ccccc2F)c(=O)oc2cc(O)ccc12 | -25.75
Cc1ccc(C)c(CNC(=O)c2cc3ccccn3n2)c1 | -1.413
Cc1cc(-c2ccc(S(=O)(=O)Nc3ccccc3C)cc2)on1 | -52.85
Cc1nc2ccn(Cc3ccco3)c(=O)c2cc1C(=O)N1CCN(c2ccccc2F)CC1 | -26.77
COC(=O)c1cc2c(cc1NC(=O)c1c(C)nn(-c3ccc(C)cc3)c1-n1cccc1)OCO2 | -5.37
CC(NC(=O)CSc1nc(-c2cccc(Cl)c2)nc2cc(=O)[nH]n12)c1nc2ccccc2n1C (stereo not given) | -17.75
COc1ccccc1CNC(=O)CCS(=O)(=O)c1ccc2c(c1)CCN2C(C)=O | -14.11
Cc1ccc(NC2(c3ccccc3)C(=O)c3ccccc3C2=O)cc1F | -10.87
CCOc1ccc(OCC)c(NC(=O)c2cc3ccccn3n2)c1 | 15.06
O=C(c1cccc(Br)c1)N1CCN(Cc2cc(=O)n3nc(-c4ccccc4)sc3n2)CC1 | -7.114
COc1ccc(CCNC(=O)Cn2nc(C)n3c(cc4cc(F)ccc43)c2=O)cc1OC | -12.54
O=S(=O)(Nc1ccc(-c2ccc(N3CCCC3)nn2)cc1)c1cccc(C(F)(F)F)c1 | -17.79
COC(=O)Cc1c(C)c2cc3c(c(C)c2oc1=O)OCN(CCc1ccccc1F)C3 | -36.45
COc1ccc2c(c1)CCc1c(C(=O)Nc3cc(C)ccc3O)noc1-2 | 41.7
Cc1nc2cccnc2n1C1CCN(S(C)(=O)=O)CC1 | -20.06
CC(NC(=O)CSc1nc(-c2ccccc2F)nc2cc(=O)[nH]n12)c1nc2ccccc2n1C (stereo not given) | -7.908
CCOC(=O)c1ccc(N2CCN(c3ccccc3OC)CC2)c(NC(=O)Nc2ccc(CC)cc2)c1 | -8.433
Cn1c(CNC(=O)CSc2nc(-c3ccccc3F)nc3cc(=O)[nH]n23)nc2ccccc21 | -0.6874
Cc1cccc(NC(=O)CSc2nc(-c3cccs3)nc3cc(=O)[nH]n23)c1 | -8.246
CCc1nn(CC(=O)NC2CC2)c(=O)c2cc3c(OC)cccc3n12 | 1.495
COc1ccc(N2CCN(CCCNC(=O)c3cnn(-c4ccc(C)cc4)c3-n3cccc3)CC2)cc1 | -42.75
O=C(NCc1ccccc1Cl)c1ccc2c(c1)NC(=O)C(CS(=O)(=O)Cc1ccc(Cl)cc1)N2 (stereo not given) | -23.79
COc1ccccc1CCNC(=O)Cc1c(C)c2ccc(O)cc2oc1=O | -9.34
CC1Cc2cc(S(=O)(=O)CCC(=O)Nc3ccc(F)cc3Cl)ccc2N1C(=O)C1CC1 (stereo not given) | -37.76
CC1(C)CC(=O)c2c(oc3c(Cl)cc(NS(=O)(=O)c4ccc(Cl)cc4)cc23)C1 | -6.07
COc1ccc(NC(=O)CN(Cc2ccccc2)S(=O)(=O)c2ccc(C)cc2)cc1Cl | -60.53

6 of the entries, repeated:

CC1Cc2cc(S(=O)(=O)CCC(=O)Nc3ccc(F)cc3Cl)ccc2N1C(=O)C1CC1 (stereo not given) read activity change -37.76%.
COc1ccc(NC(=O)CSc2nc(-c3ccco3)nc3cc(=O)[nH]n23)cc1 read activity change -8.541%.
COc1ccc2c(c1)CCc1c(C(=O)Nc3cc(C)ccc3O)noc1-2 read activity change 41.7%.
O=C(NCCCc1nc2ccccc2n1Cc1ccccc1Cl)c1ccco1 read activity change -43.98%.
Cc1ccccc1NC(=O)CSc1nnc(COc2ccc(Cl)cc2)o1 read activity change -14.35%.
O=C(CSc1nc(-c2ccco2)nc2cc(=O)[nH]n12)Nc1ccc(F)cc1 read activity change -13.92%.